Laboratory results reported in the supplement of paper PMC10849652.
The list shows a part of the results. Residues, ends and D or L forms follow the SMILES beside them. *: point of attachment. Cbz = O=C(OCc1ccccc1)*

Sequences of proteins named here, by UniProt entry; tags and fusion partners are left off. A change or cut given only in a name is not applied to a line headed by its entry.
UniProt Q96S90: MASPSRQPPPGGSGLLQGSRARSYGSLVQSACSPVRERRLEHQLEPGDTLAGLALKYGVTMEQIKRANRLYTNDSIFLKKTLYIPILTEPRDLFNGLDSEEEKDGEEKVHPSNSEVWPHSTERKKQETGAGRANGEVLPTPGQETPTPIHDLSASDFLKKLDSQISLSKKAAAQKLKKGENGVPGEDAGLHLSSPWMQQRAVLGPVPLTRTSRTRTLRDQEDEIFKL
UniProt Q66K74: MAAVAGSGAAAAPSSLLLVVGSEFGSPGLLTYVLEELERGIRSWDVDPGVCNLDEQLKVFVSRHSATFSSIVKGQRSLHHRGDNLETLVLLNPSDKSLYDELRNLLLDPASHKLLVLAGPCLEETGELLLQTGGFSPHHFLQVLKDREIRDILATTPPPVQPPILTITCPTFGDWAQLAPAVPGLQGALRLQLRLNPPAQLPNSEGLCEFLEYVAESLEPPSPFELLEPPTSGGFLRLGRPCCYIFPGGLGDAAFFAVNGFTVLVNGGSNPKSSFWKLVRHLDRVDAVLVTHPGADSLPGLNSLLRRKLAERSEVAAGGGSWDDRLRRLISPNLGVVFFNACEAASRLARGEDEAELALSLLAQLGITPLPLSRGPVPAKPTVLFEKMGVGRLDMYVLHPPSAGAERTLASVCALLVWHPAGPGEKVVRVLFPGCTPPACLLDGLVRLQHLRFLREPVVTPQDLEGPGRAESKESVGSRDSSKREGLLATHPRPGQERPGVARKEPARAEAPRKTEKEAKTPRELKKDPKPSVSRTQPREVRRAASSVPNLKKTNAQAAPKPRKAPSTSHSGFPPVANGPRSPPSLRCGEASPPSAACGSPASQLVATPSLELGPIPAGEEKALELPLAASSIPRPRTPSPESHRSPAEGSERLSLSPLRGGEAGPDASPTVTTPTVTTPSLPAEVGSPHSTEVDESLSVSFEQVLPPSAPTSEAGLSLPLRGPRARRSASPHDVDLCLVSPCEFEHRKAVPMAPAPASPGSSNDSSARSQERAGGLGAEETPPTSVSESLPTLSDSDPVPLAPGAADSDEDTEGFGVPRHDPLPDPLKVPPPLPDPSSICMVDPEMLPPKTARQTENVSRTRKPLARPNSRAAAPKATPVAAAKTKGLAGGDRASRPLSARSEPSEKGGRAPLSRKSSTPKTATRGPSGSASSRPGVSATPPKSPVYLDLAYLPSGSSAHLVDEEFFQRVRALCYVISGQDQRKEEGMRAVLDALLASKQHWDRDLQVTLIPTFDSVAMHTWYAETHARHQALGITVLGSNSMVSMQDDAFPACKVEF
UniProt Q9Y333: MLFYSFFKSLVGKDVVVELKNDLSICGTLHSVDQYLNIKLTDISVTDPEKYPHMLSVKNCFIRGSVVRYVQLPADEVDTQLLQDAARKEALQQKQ
UniProt Q3KQU3: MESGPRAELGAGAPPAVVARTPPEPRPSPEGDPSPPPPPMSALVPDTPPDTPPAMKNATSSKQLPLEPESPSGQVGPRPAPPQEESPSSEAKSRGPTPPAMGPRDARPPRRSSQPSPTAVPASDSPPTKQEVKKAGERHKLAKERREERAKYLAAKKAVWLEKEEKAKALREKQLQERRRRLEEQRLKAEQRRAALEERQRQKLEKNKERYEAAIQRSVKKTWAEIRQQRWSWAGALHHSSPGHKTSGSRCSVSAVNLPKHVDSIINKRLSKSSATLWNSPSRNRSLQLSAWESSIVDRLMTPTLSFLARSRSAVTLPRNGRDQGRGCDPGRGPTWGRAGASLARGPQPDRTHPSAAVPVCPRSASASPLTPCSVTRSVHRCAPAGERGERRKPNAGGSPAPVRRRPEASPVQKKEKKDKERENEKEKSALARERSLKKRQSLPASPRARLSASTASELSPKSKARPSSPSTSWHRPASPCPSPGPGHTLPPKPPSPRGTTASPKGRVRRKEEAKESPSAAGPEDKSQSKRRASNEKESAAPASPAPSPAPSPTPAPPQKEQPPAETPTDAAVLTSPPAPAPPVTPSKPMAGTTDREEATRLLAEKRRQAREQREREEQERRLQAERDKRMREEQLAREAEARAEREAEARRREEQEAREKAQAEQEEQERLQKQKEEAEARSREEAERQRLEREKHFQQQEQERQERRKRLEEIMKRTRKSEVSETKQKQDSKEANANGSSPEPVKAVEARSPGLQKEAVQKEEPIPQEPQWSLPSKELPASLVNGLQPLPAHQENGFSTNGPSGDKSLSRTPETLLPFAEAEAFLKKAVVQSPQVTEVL
UniProt Q9NU23: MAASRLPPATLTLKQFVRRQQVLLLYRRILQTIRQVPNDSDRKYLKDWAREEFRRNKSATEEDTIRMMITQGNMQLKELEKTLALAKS
UniProt Q9HD34: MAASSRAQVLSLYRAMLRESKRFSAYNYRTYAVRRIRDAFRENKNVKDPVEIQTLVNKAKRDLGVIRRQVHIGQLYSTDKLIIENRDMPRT
UniProt Q15691: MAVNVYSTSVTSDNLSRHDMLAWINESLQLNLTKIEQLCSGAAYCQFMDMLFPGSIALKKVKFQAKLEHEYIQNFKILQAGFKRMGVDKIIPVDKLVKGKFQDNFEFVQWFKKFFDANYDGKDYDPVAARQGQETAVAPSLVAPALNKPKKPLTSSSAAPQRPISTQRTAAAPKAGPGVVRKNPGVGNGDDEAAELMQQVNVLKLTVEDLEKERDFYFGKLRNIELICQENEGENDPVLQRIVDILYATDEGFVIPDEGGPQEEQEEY
UniProt Q9UFC0: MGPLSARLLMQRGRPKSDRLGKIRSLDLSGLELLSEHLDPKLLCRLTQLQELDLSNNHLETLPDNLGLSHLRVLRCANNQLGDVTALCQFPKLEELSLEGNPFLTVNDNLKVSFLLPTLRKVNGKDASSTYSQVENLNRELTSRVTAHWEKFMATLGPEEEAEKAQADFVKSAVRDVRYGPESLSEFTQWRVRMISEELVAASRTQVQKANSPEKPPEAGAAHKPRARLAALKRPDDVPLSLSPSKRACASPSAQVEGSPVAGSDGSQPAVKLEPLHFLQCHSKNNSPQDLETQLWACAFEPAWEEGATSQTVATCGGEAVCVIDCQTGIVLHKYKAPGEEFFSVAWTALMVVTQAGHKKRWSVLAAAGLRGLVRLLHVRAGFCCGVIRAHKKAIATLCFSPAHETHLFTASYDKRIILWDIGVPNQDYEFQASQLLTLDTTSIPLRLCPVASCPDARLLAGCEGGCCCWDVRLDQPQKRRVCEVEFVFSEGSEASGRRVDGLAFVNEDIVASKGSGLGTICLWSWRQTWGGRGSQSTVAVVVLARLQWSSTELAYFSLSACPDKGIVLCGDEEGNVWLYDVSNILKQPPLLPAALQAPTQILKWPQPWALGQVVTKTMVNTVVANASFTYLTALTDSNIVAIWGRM
UniProt Q8ND56: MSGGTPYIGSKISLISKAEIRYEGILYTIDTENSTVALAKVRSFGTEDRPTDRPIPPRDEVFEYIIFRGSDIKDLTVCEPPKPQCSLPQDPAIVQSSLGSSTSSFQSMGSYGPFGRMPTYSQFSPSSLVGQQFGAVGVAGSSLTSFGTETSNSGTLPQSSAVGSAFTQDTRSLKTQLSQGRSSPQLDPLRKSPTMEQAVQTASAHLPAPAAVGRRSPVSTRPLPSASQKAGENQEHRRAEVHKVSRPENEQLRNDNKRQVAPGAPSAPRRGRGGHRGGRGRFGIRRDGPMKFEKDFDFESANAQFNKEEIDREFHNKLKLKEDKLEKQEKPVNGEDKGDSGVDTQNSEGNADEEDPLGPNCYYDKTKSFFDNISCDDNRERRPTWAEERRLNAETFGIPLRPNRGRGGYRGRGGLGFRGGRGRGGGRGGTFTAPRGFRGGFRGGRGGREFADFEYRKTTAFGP
UniProt Q8N5G2: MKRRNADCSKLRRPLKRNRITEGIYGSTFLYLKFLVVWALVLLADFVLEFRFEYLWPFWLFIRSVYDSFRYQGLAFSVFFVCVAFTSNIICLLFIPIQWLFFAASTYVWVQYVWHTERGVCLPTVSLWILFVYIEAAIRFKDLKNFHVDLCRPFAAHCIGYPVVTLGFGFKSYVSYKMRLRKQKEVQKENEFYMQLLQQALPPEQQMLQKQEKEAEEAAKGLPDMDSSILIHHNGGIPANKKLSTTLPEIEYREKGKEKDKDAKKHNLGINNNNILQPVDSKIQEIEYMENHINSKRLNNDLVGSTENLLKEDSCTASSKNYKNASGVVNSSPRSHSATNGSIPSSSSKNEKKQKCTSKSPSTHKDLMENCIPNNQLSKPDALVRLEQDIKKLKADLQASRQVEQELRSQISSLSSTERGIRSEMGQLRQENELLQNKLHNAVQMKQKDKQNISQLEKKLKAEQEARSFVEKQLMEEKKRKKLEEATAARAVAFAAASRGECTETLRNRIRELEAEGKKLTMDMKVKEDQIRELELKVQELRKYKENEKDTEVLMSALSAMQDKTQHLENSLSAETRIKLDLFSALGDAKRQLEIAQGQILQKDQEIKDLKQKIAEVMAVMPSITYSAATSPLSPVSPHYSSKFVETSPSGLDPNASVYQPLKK
UniProt Q9BX40: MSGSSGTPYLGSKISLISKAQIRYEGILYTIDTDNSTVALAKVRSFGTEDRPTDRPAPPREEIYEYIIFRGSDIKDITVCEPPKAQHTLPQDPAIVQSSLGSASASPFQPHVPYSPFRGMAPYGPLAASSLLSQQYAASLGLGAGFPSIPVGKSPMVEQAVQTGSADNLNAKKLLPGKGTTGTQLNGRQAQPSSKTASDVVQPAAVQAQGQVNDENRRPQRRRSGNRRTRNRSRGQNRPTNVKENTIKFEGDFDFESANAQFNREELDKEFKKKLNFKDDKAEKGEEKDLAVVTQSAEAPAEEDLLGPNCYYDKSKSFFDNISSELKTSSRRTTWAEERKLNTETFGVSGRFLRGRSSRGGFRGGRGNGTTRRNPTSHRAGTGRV
UniProt Q7L5Y9: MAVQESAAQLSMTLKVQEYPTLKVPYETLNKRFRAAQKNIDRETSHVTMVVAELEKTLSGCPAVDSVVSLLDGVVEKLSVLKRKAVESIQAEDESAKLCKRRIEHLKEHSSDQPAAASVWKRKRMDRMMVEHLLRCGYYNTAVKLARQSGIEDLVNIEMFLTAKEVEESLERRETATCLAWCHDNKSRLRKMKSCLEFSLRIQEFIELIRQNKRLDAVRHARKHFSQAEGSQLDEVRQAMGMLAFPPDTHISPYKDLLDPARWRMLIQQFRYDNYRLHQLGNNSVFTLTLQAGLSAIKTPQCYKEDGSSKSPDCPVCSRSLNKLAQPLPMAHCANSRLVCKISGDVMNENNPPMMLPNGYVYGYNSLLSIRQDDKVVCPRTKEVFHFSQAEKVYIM
UniProt O60732: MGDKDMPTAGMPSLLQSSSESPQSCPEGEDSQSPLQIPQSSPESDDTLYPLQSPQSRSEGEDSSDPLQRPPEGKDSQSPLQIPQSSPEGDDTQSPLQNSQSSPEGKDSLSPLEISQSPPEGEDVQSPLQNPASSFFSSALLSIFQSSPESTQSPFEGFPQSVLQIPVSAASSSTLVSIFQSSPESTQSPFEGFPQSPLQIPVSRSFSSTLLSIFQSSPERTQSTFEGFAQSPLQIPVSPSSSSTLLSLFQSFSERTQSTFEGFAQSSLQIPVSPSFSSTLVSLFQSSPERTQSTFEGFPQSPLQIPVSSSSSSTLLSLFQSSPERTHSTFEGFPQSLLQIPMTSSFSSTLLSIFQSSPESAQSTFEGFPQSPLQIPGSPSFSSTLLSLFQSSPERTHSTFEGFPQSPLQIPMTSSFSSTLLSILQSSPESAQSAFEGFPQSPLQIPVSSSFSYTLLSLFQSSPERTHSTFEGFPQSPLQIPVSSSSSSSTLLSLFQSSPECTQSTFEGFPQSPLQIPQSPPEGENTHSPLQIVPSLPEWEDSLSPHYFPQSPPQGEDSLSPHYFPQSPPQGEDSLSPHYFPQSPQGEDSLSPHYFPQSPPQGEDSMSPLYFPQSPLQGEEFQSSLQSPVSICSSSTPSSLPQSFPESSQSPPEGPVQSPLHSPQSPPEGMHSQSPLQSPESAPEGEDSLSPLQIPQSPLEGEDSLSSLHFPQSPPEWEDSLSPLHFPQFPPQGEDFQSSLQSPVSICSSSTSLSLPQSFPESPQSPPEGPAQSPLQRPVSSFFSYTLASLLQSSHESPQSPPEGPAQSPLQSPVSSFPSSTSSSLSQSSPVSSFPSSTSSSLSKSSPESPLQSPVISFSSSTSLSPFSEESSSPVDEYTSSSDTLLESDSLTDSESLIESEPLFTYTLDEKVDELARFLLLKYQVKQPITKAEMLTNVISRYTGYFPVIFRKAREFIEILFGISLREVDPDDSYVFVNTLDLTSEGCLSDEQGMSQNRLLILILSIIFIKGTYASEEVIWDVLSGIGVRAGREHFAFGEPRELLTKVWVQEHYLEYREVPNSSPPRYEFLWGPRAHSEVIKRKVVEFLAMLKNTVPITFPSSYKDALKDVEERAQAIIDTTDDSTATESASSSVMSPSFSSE

Key:
Assay in all cases: log2 fold change, soluble protein after heating vs DMSO (PISA); higher = thermal stabilisation; K562 cells, 10 uM, 30 min; active = over 0.2 and 3.5 SD of the protein, either way, in both replicates (recomputed)
IRAK-1-4 Inhibitor I = compound: C1COCCN1CCN2C3=CC=CC=C3N=C2NC(=O)C4=CC(=CC=C4)[N+](=O)[O-] [IRAK-1-4 Inhibitor I]
Summary of the method: (§1)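 K562 cells at 2×10^6 cells/mL were exposed to 10 μM compound for 30 min, then aliquots were heated for 3 min across 48°C-58°C, pooled, and extracted in PBS containing 0.5% NP-40 at 4°C. The supernatant after 21,000xg for 90 min was taken as soluble protein and measured by TMTpro 16plex LC-MS/MS with channel sums equalised. Thermal stability is reported relative to control samples, with values from duplicates. Fold changes are given on a log2 scale.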

ibrutinib = compound: C=CC(=O)N1CCC[C@@H](n2nc(-c3ccc(Oc4ccccc4)cc3)c3c(N)ncnc32)C1 [ibrutinib]
Summary of the method: as §1

[1] = compound: CC(=O)c1cnc2ccc(-c3cc(Cl)c(O)c(Cl)c3)nc2c1N[C@H]1CC[C@H](CN(C)C)CC1
Summary of the method: as §1

ralimetinib = compound: CC(C)(C)Cn1c(N)nc2ccc(-c3[nH]c(C(C)(C)C)nc3-c3ccc(F)cc3)nc21 [ralimetinib]
Summary of the method: as §1

[2] = compound: CC(C)(O)CC(=O)NCCn1ccc2ncnc(Nc3ccc(Oc4cccc(C(F)(F)F)c4)c(Cl)c3)c21
Summary of the method: as §1

[3] = compound: CC(C)C1=C2N=C(C=C(N2N=C1)NCC3=CC=CC=C3)NCCCCCCN
Summary of the method: as §1

[4] = compound: CC(C)C[C@@H](C=O)NC(=O)[C@H](CC(C)C)NC(=O)[C@H](CC(C)C)NC(=O)OCc1ccccc1
Summary of the method: as §1

pinometostat = compound: CC(C)N(C[C@H]1O[C@@H](n2cnc3c(N)ncnc32)[C@H](O)[C@@H]1O)[C@H]1C[C@@H](CCc2nc3cc(C(C)(C)C)ccc3[nH]2)C1 [pinometostat]
Summary of the method: as §1

[5] = compound: CC1=C(C(CC(=O)N1)C2=CC=C(C=C2)C(F)(F)F)C(=O)NC3=C(C=C4C(=C3)C=NN4)F
Summary of the method: as §1

[6] = compound: CC1=C(C2=C(C=C1)C(=O)C3=CC=CC=C3N2CCCN)C
Summary of the method: as §1

[7] = compound: CC1=C(C=C(C=C1)NC(=O)C2=CC(=CC=C2)C(C)(C)C#N)NC3=CC4=C(C=C3)N=CN(C4=O)C
Summary of the method: as §1

[8] = compound: CC1=C(C=C(C=C1)NC(=O)C2=CC(=CC=C2)N(C)C)NC(=O)C3=CC=C(C=C3)O
Summary of the method: as §1

[9] = compound: CC1=CC=C(C=C1)SC2=C3C=C(SC3=CN=C2)C(=O)N
Summary of the method: as §1

[10] = compound: CC1=NC(=CC=C1)C2=C(N=C(N2)C(C)(C)C)C3=CC4=NC=CN=C4C=C3
Summary of the method: as §1

Nexturastat A = compound: CCCCN(Cc1ccc(C(=O)NO)cc1)C(=O)Nc1ccccc1 [Nexturastat A]
Summary of the method: as §1

vemurafenib = compound: CCCS(=O)(=O)Nc1ccc(F)c(C(=O)c2c[nH]c3ncc(-c4ccc(Cl)cc4)cc23)c1F [vemurafenib]
Summary of the method: as §1

[11] = compound: CCCS(=O)(=O)Nc1ccc(F)c(C(=O)c2c[nH]c3ncc(Cl)cc23)c1F
Summary of the method: as §1

[12] = compound: CCCc1cc(C)[nH]c(=O)c1CNC(=O)c1cc(-c2ccnc(N3CCN(C)CC3)c2)cc2c1cnn2C(C)C
Summary of the method: as §1

givinostat = compound: CCN(CC)Cc1ccc2cc(COC(=O)Nc3ccc(C(=O)NO)cc3)ccc2c1 [givinostat]
Summary of the method: as §1

barasertib = compound: CCN(CCCOc1ccc2c(Nc3cc(CC(=O)Nc4cccc(F)c4)[nH]n3)ncnc2c1)CCOP(=O)(O)O [barasertib]
Summary of the method: as §1

Measured: log2 fold change

LYSMD1 (UniProt Q96S90)
inactive: IRAK-1-4 Inhibitor I 0.008 | ibrutinib -0.015 | [1] -0.044 | ralimetinib 0.03 | [2] -0.006 | [3] 0.004 | [4] 0.122 | pinometostat -0.051 | [5] -0.009 | [6] -0.03 | [7] 0.031 | [8] 0.032 | [9] 0.015 | [10] 0.029 | Nexturastat A 0.05 | vemurafenib 0.034 | [11] 0.059 | [12] -0.084 | givinostat 0.005 | barasertib 0.01

MAP1S (UniProt Q66K74)
inactive: IRAK-1-4 Inhibitor I -0.075 | ibrutinib -0.012 | [1] 0.062 | ralimetinib 0.032 | [2] -0.009 | [3] -0.037 | [4] 0.044 | pinometostat 0.051 | [5] -0.05 | [6] -0.033 | [7] -0.01 | [8] -0.012 | [9] 0.034 | [10] 0.036 | Nexturastat A 0.047 | vemurafenib 0.017 | [11] 0.023 | [12] 0.081 | givinostat 0.033 | barasertib 0.002

MAN2C1 isoform 4 (UniProt Q9NTJ4)
inactive: IRAK-1-4 Inhibitor I -0.004 | ibrutinib -0.043 | [1] -0.037 | ralimetinib -0.04 | [2] -0.015 | [3] 0.111 | [4] -0.02 | pinometostat 0.004 | [5] 0.208 | [6] 0.026 | [7] 0.024 | [8] 0.043 | [9] -0.01 | [10] -0.038 | Nexturastat A -0.062 | vemurafenib -0.043 | [11] -0.054 | [12] -0.13 | givinostat -0.014 | barasertib 0.016

MAP2K4 isoform 2 (UniProt P45985)
inactive: IRAK-1-4 Inhibitor I 0.032 | ibrutinib 0.014 | [1] -0.244 | ralimetinib -0.003 | [2] -0.071 | [3] 0.006 | [4] 0.026 | pinometostat -0.006 | [5] 0.009 | [6] -0.009 | [7] -0.024 | [8] 0.025 | [9] -0.007 | [10] 0.011 | Nexturastat A -0.049 | vemurafenib -0.001 | [11] 0.032 | [12] -0.055 | givinostat -0.03 | barasertib -0.009

LSM2 (UniProt Q9Y333)
inactive: IRAK-1-4 Inhibitor I 0.017 | ibrutinib 0.01 | [1] -0.012 | ralimetinib -0.047 | [2] 0.003 | [3] 0.063 | [4] -0.049 | pinometostat -0.056 | [5] 0.007 | [6] 0.023 | [7] -0.02 | [8] 0.026 | [9] 0.033 | [10] 0.061 | Nexturastat A -0.059 | vemurafenib 0.027 | [11] 0.012 | [12] -0.107 | givinostat 0.016 | barasertib -0.011

Quoted from the results shown (4 entries):
MAP1S (UniProt Q66K74)
inactive: IRAK-1-4 Inhibitor I -0.075 | ibrutinib -0.012 | [1] 0.062 | ralimetinib 0.032 | [2] -0.009 | [3] -0.037 | [4] 0.044 | pinometostat 0.051 | [5] -0.05 | [6] -0.033 | [7] -0.01 | [8] -0.012 | [9] 0.034 | [10] 0.036 | Nexturastat A 0.047 | vemurafenib 0.017 | [11] 0.023 | [12] 0.081 | givinostat 0.033 | barasertib 0.002

MAN2C1 isoform 4 (UniProt Q9NTJ4)
inactive: IRAK-1-4 Inhibitor I -0.004 | ibrutinib -0.043 | [1] -0.037 | ralimetinib -0.04 | [2] -0.015 | [3] 0.111 | [4] -0.02 | pinometostat 0.004 | [5] 0.208 | [6] 0.026 | [7] 0.024 | [8] 0.043 | [9] -0.01 | [10] -0.038 | Nexturastat A -0.062 | vemurafenib -0.043 | [11] -0.054 | [12] -0.13 | givinostat -0.014 | barasertib 0.016

MAP2K4 isoform 2 (UniProt P45985)
inactive: IRAK-1-4 Inhibitor I 0.032 | ibrutinib 0.014 | [1] -0.244 | ralimetinib -0.003 | [2] -0.071 | [3] 0.006 | [4] 0.026 | pinometostat -0.006 | [5] 0.009 | [6] -0.009 | [7] -0.024 | [8] 0.025 | [9] -0.007 | [10] 0.011 | Nexturastat A -0.049 | vemurafenib -0.001 | [11] 0.032 | [12] -0.055 | givinostat -0.03 | barasertib -0.009

LSM2 (UniProt Q9Y333)
inactive: IRAK-1-4 Inhibitor I 0.017 | ibrutinib 0.01 | [1] -0.012 | ralimetinib -0.047 | [2] 0.003 | [3] 0.063 | [4] -0.049 | pinometostat -0.056 | [5] 0.007 | [6] 0.023 | [7] -0.02 | [8] 0.026 | [9] 0.033 | [10] 0.061 | Nexturastat A -0.059 | vemurafenib 0.027 | [11] 0.012 | [12] -0.107 | givinostat 0.016 | barasertib -0.011

Next part.

MAP7D1 (UniProt Q3KQU3)
inactive: IRAK-1-4 Inhibitor I -0.099 | ibrutinib 0.026 | [1] 0.068 | ralimetinib 0.227 | [2] 0.028 | [3] -0.021 | [4] 0.086 | pinometostat 0.37 | [5] 0.055 | [6] -0.219 | [7] -0.118 | [8] -0.002 | [9] -0.035 | [10] -0.045 | Nexturastat A 0.231 | vemurafenib -0.192 | [11] -0.04 | [12] 0.104 | givinostat 0.117 | barasertib -0.102

LYRM2 (UniProt Q9NU23)
inactive: IRAK-1-4 Inhibitor I -0.001 | ibrutinib 0.01 | [1] -0.026 | ralimetinib -0.034 | [2] -0.024 | [3] -0.015 | [4] -0.022 | pinometostat -0.065 | [5] -0.017 | [6] 0 | [7] 0.034 | [8] -0.017 | [9] 0.036 | [10] 0.052 | Nexturastat A -0.007 | vemurafenib 0.09 | [11] -0.149 | [12] -0.078 | givinostat -0.008 | barasertib -0.016

LYRM4 (UniProt Q9HD34)
inactive: IRAK-1-4 Inhibitor I 0.031 | ibrutinib 0.007 | [1] -0.022 | ralimetinib -0.04 | [2] -0.091 | [3] 0.008 | [4] -0.001 | pinometostat -0.051 | [5] -0.021 | [6] 0.013 | [7] 0.014 | [8] -0.012 | [9] 0.062 | [10] 0.008 | Nexturastat A -0.01 | vemurafenib -0.014 | [11] 0.032 | [12] 0.06 | givinostat 0.03 | barasertib 0.02

MAPRE1 (UniProt Q15691)
inactive: IRAK-1-4 Inhibitor I 0.034 | ibrutinib -0.037 | [1] -0.011 | ralimetinib -0.023 | [2] -0.028 | [3] -0.044 | [4] 0.016 | pinometostat -0.009 | [5] -0.013 | [6] 0.018 | [7] 0.017 | [8] -0.03 | [9] 0.016 | [10] 0.091 | Nexturastat A -0.135 | vemurafenib 0.022 | [11] 0.025 | [12] 0.067 | givinostat -0.024 | barasertib 0.048

LRWD1 (UniProt Q9UFC0)
inactive: IRAK-1-4 Inhibitor I -0.148 | ibrutinib 0.059 | [1] -0.09 | ralimetinib 0.057 | [2] -0.374 | [3] -0.089 | [4] -0.001 | pinometostat 0.044 | [5] 0.022 | [6] 0.052 | [7] 0.112 | [8] -0.11 | [9] 0.066 | [10] 0.189 | Nexturastat A 0.03 | vemurafenib 0.112 | [11] 0.223 | [12] 0.123 | givinostat 0.201 | barasertib 0.095

LSM14A isoform 2 (UniProt Q8ND56)
inactive: IRAK-1-4 Inhibitor I -0.046 | ibrutinib 0.021 | [1] 0.009 | ralimetinib -0.017 | [2] 0.028 | [3] -0.016 | [4] 0.062 | pinometostat 0.09 | [5] 0.011 | [6] 0.167 | [7] -0.017 | [8] -0.04 | [9] 0.04 | [10] 0.05 | Nexturastat A 0.016 | vemurafenib -0.024 | [11] 0.005 | [12] -0.015 | givinostat 0.052 | barasertib 0.024

MACO1 (UniProt Q8N5G2)
inactive: IRAK-1-4 Inhibitor I -0.025 | ibrutinib 0.023 | [1] 0.012 | ralimetinib 0.052 | [2] -0.054 | [3] -0.104 | [4] 0.034 | pinometostat 0.064 | [5] -0.008 | [6] 0.147 | [7] -0.035 | [8] 0.009 | [9] 0.061 | [10] -0.005 | Nexturastat A 0.063 | vemurafenib -0.032 | [11] 0.056 | [12] -0.021 | givinostat 0.046 | barasertib 0.011

LSM14B (UniProt Q9BX40)
inactive: IRAK-1-4 Inhibitor I -0.082 | ibrutinib 0.04 | [1] -0.091 | ralimetinib 0.114 | [2] 0.041 | [3] -0.082 | [4] 0.105 | pinometostat 0.123 | [5] -0.003 | [6] -0.027 | [7] 0.036 | [8] 0 | [9] -0.005 | [10] -0.024 | Nexturastat A 0.125 | vemurafenib -0.019 | [11] 0.042 | [12] 0.08 | givinostat 0.1 | barasertib 0.034

MACF1 (UniProt H3BQK9)
inactive: IRAK-1-4 Inhibitor I -0.182 | ibrutinib -0.029 | [1] -0.115 | ralimetinib 0 | [2] -0.073 | [3] -0.23 | [4] 0.085 | pinometostat 0.04 | [5] -0.017 | [6] 0.076 | [7] 0.02 | [8] -0.052 | [9] -0.017 | [10] 0.012 | Nexturastat A 0.131 | vemurafenib -0.171 | [11] 0.093 | [12] 0.153 | givinostat 0.066 | barasertib -0.016

MAEA (UniProt Q7L5Y9)
inactive: IRAK-1-4 Inhibitor I -0.065 | ibrutinib -0.037 | [1] 0.05 | ralimetinib 0.028 | [2] -0.004 | [3] 0.005 | [4] 0.035 | pinometostat -0.005 | [5] -0.002 | [6] -0.042 | [7] -0.044 | [8] -0.033 | [9] -0.048 | [10] -0.029 | Nexturastat A -0.057 | vemurafenib -0.047 | [11] 0.019 | [12] -0.046 | givinostat -0.063 | barasertib 0.053

MAGEC1 (UniProt O60732)
inactive: IRAK-1-4 Inhibitor I -0.106 | ibrutinib -0.018 | [1] 0.17 | ralimetinib 0.085 | [2] 0.037 | [3] -0.26 | [4] 0.042 | pinometostat 0.245 | [5] -0.073 | [6] -0.039 | [7] -0.044 | [8] -0.047 | [9] -0.062 | [10] -0.061 | Nexturastat A 0.26 | vemurafenib 0.036 | [11] 0.021 | [12] 0.09 | givinostat 0.052 | barasertib 0.022
